{"source": "patent US6897200B1", "about": "“Oligonucleotide delivery systems for camptothecins” (University of Kentucky Research Foundation, priority 1998, dated 2005)", "test_system": "dsDNA", "assay": "Long-term lactone levels in the presence of DNA (HPLC)", "settings": "PBS pH 7.4, room temperature", "note": "Some results were stated once for a whole list of compounds, not compound by compound.", "data": [{"smiles": "CC[C@@]1(O)C(=O)OCc2c1cc1n(c2=O)Cc2cc3c(CN(C)C)c(O)ccc3nc2-1", "note": "[TPT, topotecan]", "values": [{"measurement": "lactone levels for time points out to 5 days", "result": "50-60%"}]}]}
